Test results: paper PMC10442235
No constants are given. Whether binding was seen depends on the method and setting. Binding can be weak; no strength is given. Blank lines part the entries; values can stand above or below the molecule they belong to.

Protein sequences, listed by entry. Tags and fused reporters are not part of them. Lines headed by an entry give the natural chain unless they say otherwise; changes in a name come on top.
UniProt G0S5S6: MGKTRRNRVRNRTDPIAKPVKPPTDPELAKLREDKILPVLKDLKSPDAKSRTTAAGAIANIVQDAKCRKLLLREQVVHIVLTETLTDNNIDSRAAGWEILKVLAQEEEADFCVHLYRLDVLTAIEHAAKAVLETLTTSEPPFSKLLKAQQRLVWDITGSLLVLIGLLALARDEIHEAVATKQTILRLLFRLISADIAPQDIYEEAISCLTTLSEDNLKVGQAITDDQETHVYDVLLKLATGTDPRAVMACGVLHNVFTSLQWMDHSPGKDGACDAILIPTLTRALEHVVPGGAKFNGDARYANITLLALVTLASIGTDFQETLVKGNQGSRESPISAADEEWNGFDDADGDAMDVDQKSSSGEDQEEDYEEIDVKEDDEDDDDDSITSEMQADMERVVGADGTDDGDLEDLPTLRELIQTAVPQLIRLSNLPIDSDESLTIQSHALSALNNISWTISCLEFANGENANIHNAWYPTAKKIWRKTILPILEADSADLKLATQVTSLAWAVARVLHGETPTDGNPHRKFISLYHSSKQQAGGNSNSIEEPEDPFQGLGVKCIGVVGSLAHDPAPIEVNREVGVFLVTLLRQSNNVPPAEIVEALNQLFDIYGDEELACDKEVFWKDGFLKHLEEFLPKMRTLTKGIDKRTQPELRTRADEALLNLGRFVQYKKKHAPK
UniProt G0SHQ2: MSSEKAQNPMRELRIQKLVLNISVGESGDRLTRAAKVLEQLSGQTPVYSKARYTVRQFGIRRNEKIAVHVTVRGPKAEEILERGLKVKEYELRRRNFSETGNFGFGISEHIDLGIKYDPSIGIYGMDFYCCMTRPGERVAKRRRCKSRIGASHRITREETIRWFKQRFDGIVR
UniProt G0SEG2: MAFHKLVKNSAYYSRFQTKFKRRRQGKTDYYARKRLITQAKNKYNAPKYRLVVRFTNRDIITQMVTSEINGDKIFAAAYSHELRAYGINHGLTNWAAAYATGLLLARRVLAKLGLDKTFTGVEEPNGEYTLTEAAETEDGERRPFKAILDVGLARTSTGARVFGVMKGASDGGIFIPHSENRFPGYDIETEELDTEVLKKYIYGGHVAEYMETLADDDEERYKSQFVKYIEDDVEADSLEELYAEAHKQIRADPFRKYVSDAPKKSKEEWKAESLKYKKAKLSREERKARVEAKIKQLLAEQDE

Key:
[1] = biological target: ctSyo1 (Chaetomium thermophilum (endogenous in C. thermophilum)) (UniProt G0S5S6); experiment: cryo-EM structure; hexameric ct 5S RNP isolated from C. thermophilum via ctRpf2; 3.5 Å; contains 5S rRNA; both purified
[2] = biological target: ProtA-TEV-ctSyo1 (Chaetomium thermophilum) (UniProt G0S5S6); experiment: cryo-EM structure; ct–sc 5S RNP chimera split-tag purified from yeast; monomer of the hexamer 4.1 Å, dimer of hexamers 4.0 Å (C2); contains yeast 5S rRNA; both purified

binding [1]: binds
Molecule: ctuL5 (from UniProt G0SHQ2)

binding [1]: binds
Molecule: ctuL18 (from UniProt G0SEG2)

binding [2]: binds
B1: endogenous yeast uL18 (protein, UniProt P26321 1-297)
chain: MAFQKDAKSSAYSSRFQTPFRRRREGKTDYYQRKRLVTQHKAKYNTPKYRLVVRFTNKDIICQIISSTITGDVVLAAAYSHELPRYGITHGLTNWAAAYATGLLIARRTLQKLGLDETYKGVEEVEGEYELTEAVEDGPRPFKVFLDIGLQRTTTGARVFGALKGASDGGLYVPHSENRFPGWDFETEEIDPELLRSYIFGGHVSQYMEELADDDEERFSELFKGYLADDIDADSLEDIYTSAHEAIRADPAFKPTEKKFTKEQYAAESKKYRQTKLSKEERAARVAAKIAALAGQQ
